Earlier results as cited in patent US20210228549A1 (Biohaven Therapeutics Ltd., priority 2015, published 2021).
For at least one compound, name, drawing or mass did not settle the structure.

System: Metastatic melanoma
Conditions: cited from earlier work

CN(C)/N=N/c1[nH]cnc1C(N)=O [dacarbazine]
Median progression-free enhancement of survival time: 1.5 months
